Results from publication PMC3324464, “The GPI Anchor Signal Sequence Dictates the Folding and Functionality of the Als5 Adhesin from Candida albicans” (PLoS ONE, 2012).

By UniProt entry, the sequences of proteins in these tests, tags left out. Where a name states a change or a piece, a line headed by the entry shows the natural chain unless it says otherwise.
UniProt Q5A8T7: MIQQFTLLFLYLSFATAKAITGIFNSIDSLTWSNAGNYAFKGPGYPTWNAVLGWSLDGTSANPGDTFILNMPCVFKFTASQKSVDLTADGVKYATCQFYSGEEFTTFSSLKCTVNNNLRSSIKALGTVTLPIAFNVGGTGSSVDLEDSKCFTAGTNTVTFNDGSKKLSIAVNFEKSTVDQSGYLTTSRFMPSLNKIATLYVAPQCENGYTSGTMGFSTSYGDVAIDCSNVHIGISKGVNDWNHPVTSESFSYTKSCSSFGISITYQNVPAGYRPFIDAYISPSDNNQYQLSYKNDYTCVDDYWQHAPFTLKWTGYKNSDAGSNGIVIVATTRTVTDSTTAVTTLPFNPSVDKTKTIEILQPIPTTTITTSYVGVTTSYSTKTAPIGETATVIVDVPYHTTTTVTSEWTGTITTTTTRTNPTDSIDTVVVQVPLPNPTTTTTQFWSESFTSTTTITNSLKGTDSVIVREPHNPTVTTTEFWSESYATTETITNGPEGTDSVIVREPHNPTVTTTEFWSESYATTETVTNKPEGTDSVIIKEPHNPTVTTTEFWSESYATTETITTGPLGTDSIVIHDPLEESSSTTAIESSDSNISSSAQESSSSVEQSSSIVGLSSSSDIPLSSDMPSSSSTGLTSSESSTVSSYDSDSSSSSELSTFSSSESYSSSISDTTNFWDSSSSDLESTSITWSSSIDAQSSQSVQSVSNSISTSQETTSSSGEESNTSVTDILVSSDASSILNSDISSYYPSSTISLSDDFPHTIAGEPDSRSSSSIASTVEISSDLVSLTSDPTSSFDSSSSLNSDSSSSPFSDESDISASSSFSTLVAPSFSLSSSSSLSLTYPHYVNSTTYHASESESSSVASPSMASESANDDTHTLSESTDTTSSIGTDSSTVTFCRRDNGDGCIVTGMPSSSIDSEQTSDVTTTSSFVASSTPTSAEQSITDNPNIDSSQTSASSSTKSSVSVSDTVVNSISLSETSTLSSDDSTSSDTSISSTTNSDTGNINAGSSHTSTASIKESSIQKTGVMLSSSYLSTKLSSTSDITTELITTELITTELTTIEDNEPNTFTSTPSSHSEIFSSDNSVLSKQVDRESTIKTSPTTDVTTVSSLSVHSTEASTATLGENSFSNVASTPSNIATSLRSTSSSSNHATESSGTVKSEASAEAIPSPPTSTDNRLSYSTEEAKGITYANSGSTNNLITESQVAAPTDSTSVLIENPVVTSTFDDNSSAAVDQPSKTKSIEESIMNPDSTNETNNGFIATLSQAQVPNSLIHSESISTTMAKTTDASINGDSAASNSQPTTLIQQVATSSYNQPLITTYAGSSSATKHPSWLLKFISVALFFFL

Biological target: GST-Als5-SS (Candida albicans) (UniProt Q5A8T7)
Test: other fluorescence titration; both purified

## VSPIRLK
  binding: no binding (tested: peptide up to 1.5 µM)

No constants are given. Whether binding was seen depends on the method and setting.
